# Source: PubChem BioAssay AID493246 (Drosophila RNAi Screening Center, 2011)
# Test: 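Genes fly cells need to grow and stay alive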 (primary screen)
# Cell system: Drosophila Kc and S2R+ cells
# Knock-down reagent: long dsRNA against Drosophila genes
# Measurement: 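Raw, unnormalised count of remaining cells in each well; per-plate z-scores of cell number underlie the calls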
# Scale: Kc cell number and S2R+ cell number: higher = more cells remaining
# Call rule: 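Active when the per-plate z-score of cell number is 3 or more in the direction of fewer cells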
# The deposit covers about 21,000 reagents; below is a random part of those that have a named target and a result. Over the whole deposit, 429 (2%) got an active call. 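Values are raw and not normalised between plates; calls rest on per-plate z-scores that were not deposited.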 The numbers tell different reagents against one gene apart. Names joined by + are all predicted targets of the reagent. The record does not give: the amount of reagent, the time to read-out.
predicted target,reagent,"Kc cell number, rep 1","Kc cell number, rep 2","S2R+ cell number, rep 1","S2R+ cell number, rep 2",activity call
CG10747,1,1.57e6,1.60e6,1.19e6,2.96e5,inactive
Nepl8 (Neprilysin-like 8),1,1.65e6,1.72e6,1.30e6,1.48e6,inactive
CG7530,1,1.63e6,1.68e6,1.38e6,1.38e6,inactive
CG8646,1,1.61e6,1.63e6,1.27e6,1.42e6,inactive
CBP (sarcoplasmic calcium-binding protein),1,6.53e5,,9.53e5,,inactive
bin3 (bicoid-interacting protein 3),1,1.46e6,1.53e6,1.10e6,1.41e6,inactive
Gar1 (Gar1 ribonucleoprotein),1,1.52e6,1.62e6,1.31e6,5.09e5,inactive
Mes2 (Mesoderm-expressed 2),1,1.79e6,1.78e6,8.61e5,1.04e6,active
Mes2 (Mesoderm-expressed 2),2,1.59e6,1.66e6,7.36e5,8.68e5,inactive
CG8051,1,1.64e6,1.60e6,1.04e6,1.22e6,inactive

Already shown: entries from further up.
predicted target,reagent,"Kc cell number, rep 1","Kc cell number, rep 2","S2R+ cell number, rep 1","S2R+ cell number, rep 2",activity call
Mes2 (Mesoderm-expressed 2),2,1.59e6,1.66e6,7.36e5,8.68e5,inactive
CG8051,1,1.64e6,1.60e6,1.04e6,1.22e6,inactive

The listing continues:
predicted target,reagent,"Kc cell number, rep 1","Kc cell number, rep 2","S2R+ cell number, rep 1","S2R+ cell number, rep 2",activity call
CG8100,1,1.70e6,1.75e6,1.20e6,1.30e6,inactive
SPE (Spatzle-Processing Enzyme),1,1.58e6,1.66e6,1.28e6,1.38e6,inactive
g (garnet),1,1.58e6,1.46e6,1.18e6,1.31e6,inactive
Agpat4 (1-Acylglycerol-3-phosphate O-acyltransferase 4),1,1.40e6,1.45e6,1.20e6,1.35e6,inactive
Non1 (Novel nucleolar protein 1),1,1.21e6,1.24e6,8.36e5,9.27e5,inactive
CG10466,1,1.64e6,1.65e6,1.24e6,2.68e5,inactive
CG31688 + CG31687,1,1.55e6,1.55e6,1.07e6,3.43e5,inactive
Coop (Corepressor of Pangolin),1,1.44e6,1.44e6,1.01e6,1.01e6,inactive
fit (female-specific independent of transformer),1,1.44e6,1.44e6,1.23e6,1.39e6,inactive
CG5846,1,1.33e6,1.39e6,1.10e6,1.20e6,inactive
Nap1 (Nucleosome assembly protein 1),1,1.36e6,1.36e6,9.99e5,1.02e6,inactive
CG17698,1,1.40e6,1.45e6,1.27e6,1.32e6,inactive
Pss (Phosphatidylserine synthase),1,1.59e6,1.71e6,1.31e6,1.42e6,inactive
GluRIIB (Glutamate receptor IIB),1,1.52e6,1.45e6,1.10e6,1.19e6,inactive
